Experimental data from PMC11705635.
Results are given in words; binding and its absence hold for the method and conditions named. In cells and extracts the contact can be indirect. Some binding calls cover weakened binding; strength is not graded here.

Experiments:
[1] = biological target: T1, ubiquitin specific peptidases 25 (USP25) (mouse (endogenous in BMDMs)) (UniProt P57080); assay: co-IP; cell lysates in IP lysis buffer with protease inhibitors; primary antibody (anti-USP25 or anti-STAT6) overnight at 4 C, Protein A/G beads, 5 washes with PBS, immunoblot; both directions
T1 sequence: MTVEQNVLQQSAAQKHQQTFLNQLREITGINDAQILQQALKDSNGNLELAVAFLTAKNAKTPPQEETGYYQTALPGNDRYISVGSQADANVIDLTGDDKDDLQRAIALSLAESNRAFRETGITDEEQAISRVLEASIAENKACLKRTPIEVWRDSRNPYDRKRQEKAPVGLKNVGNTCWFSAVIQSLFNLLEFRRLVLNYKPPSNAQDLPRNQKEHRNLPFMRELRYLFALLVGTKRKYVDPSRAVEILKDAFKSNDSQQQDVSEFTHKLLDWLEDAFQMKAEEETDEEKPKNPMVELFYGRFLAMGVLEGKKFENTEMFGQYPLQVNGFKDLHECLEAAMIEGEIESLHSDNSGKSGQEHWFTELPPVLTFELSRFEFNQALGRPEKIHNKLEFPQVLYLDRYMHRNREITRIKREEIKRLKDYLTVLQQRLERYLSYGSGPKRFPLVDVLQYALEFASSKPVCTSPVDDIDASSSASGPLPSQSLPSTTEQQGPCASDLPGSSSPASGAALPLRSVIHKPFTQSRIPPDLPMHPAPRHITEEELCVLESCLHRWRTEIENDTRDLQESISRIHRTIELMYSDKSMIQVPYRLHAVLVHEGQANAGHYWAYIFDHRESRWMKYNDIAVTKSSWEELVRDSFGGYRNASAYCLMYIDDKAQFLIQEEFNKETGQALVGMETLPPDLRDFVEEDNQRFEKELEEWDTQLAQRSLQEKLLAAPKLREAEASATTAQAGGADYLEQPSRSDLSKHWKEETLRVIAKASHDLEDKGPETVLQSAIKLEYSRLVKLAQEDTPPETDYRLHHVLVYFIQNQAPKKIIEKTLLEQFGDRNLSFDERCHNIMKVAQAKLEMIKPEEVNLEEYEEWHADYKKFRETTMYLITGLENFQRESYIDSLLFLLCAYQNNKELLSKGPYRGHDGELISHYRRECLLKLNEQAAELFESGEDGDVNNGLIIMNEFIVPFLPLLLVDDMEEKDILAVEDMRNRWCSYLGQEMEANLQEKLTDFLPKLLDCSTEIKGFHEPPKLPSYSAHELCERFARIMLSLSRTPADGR

[2] = biological target: T2, signal transducer and activator of transcription 6 (STAT6) (mouse (endogenous in BMDMs)) (UniProt P52633); assay: as above
T2 sequence: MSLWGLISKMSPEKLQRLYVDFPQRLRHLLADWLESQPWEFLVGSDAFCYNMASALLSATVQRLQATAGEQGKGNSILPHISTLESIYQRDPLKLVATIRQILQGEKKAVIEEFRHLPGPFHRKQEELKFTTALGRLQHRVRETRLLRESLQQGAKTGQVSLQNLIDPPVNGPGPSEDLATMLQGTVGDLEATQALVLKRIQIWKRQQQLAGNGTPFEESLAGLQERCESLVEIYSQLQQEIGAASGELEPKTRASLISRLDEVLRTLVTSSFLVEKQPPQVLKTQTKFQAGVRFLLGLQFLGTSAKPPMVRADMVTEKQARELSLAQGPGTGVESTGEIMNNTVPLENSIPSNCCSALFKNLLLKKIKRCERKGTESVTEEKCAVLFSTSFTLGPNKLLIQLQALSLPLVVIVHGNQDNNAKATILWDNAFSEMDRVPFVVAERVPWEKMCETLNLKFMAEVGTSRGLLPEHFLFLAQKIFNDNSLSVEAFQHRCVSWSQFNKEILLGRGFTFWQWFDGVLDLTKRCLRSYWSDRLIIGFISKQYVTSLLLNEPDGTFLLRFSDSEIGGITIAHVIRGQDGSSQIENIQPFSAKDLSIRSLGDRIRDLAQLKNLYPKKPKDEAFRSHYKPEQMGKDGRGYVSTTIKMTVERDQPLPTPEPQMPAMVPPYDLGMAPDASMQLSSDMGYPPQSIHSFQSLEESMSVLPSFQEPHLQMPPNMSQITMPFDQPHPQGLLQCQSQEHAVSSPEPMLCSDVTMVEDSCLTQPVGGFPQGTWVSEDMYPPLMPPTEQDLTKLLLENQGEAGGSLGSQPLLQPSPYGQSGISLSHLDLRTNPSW

B1: signal transducer and activator of transcription 6 (STAT6) (protein, UniProt P52633 1-837)
chain: T2 sequence
binding [1]: binds

B2: ubiquitin specific peptidases 25 (USP25) (enzyme, UniProt P57080 1-1055)
chain: T1 sequence
binding [2]: binds
